Reference: article PMC4110944, “Probing SH2-domains using Inhibitor Affinity Purification (IAP)” (Proteome Science, 2014)

System: SH2 proteins
Test: Pull-down with immobilized probe 1 from lysates of Colo205 cells treated with pervanadate or water
Type: binding, human
Conditions: for SH2-protein LFQ intensity ratio: triplicates

CCCCCN(CCOCCOCCN)C(=O)[C@H](CCC(=O)O)NC(=O)[C@H](Cc1ccc(C(F)(F)P(=O)(O)O)cc1)NC(C)=O [probe 1] was tested, and the “SH2-protein LFQ intensity ratio” value (Colo205, control without pervanadate) was 14%, the “number of SH2 proteins quantified in three replicates” value (Colo205, out of 23 present in the proteome) was 8 and the “SH2-protein LFQ intensity ratio” value (Colo205, pervanadate treated samples) was 7%.
